# The other results are listed elsewhere or left out.
# How the values were obtained:
# Assay in all cases: glycan array binding signal (z-score within array); higher = stronger binding
# Settings in all cases: glycan notation: IUPAC condensed, linker removed
# [1] = target: Gal(b1-3)GalNAc(b1-3)Gal(a1-4)Gal(b1-4)Glc
# Method in brief: (§1)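 Columns mapping to the same glycan were averaged after glycan names were converted to IUPAC-condensed notation. The data come from 3228 arrays in the Consortium for Functional Glycomics database, limited to those with an available protein sequence. Binding is reported as a within-array Z-score averaged across arrays of one protein sequence and across linkers.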
# [2] = target: Gal(b1-3)GalNAc(b1-4)Gal(b1-4)Glc
# Method in brief: as §1
# [3] = target: Gal(b1-3)GalNAc(b1-4)[Neu5Ac(a2-3)]Gal(b1-4)Glc
# Method in brief: as §1
# Gal(b1-3)GlcNAc = target: Gal(b1-3)GlcNAc
# Method in brief: as §1
# [4] = target: Gal(b1-3)GlcNAc(a1-3)Gal(b1-4)GlcNAc
# Method in brief: as §1
# [5] = target: Gal(b1-3)GlcNAc(a1-6)Gal(b1-4)GlcNAc
# Method in brief: as §1
# Gal(b1-3)GlcNAc(b1-2)Man = target: Gal(b1-3)GlcNAc(b1-2)Man
# Method in brief: as §1
# [6] = target: Gal(b1-3)GlcNAc(b1-2)Man(a1-3)[Gal(b1-3)GlcNAc(b1-2)Man(a1-6)]Man(b1-4)GlcNAc(b1-4)GlcNAc
# Method in brief: as §1
# [7] = target: Gal(b1-3)GlcNAc(b1-2)Man(a1-3)[Gal(b1-3)GlcNAc(b1-2)Man(a1-6)]Man(b1-4)GlcNAc(b1-4)[Fuc(a1-6)]GlcNAc
# Method in brief: as §1
# [8] = target: Gal(b1-3)GlcNAc(b1-2)Man(a1-3)[GlcNAc(b1-4)][Gal(b1-3)GlcNAc(b1-2)Man(a1-6)]Man(b1-4)GlcNAc(b1-4)GlcNAc
# Method in brief: as §1
# [9] = target: Gal(b1-3)GlcNAc(b1-2)[Gal(b1-3)GlcNAc(b1-6)]Man(a1-6)[Gal(b1-3)GlcNAc(b1-2)Man(a1-3)]Man(b1-4)GlcNAc(b1-4)GlcNAc
# Method in brief: as §1
# [10] = target: Gal(b1-3)GlcNAc(b1-3)Gal(b1-3)GlcNAc
# Method in brief: as §1
# [11] = target: Gal(b1-3)GlcNAc(b1-3)Gal(b1-4)Glc
# Method in brief: as §1
# [12] = target: Gal(b1-3)GlcNAc(b1-3)Gal(b1-4)GlcNAc
# Method in brief: as §1
# [13] = target: Gal(b1-3)GlcNAc(b1-3)Gal(b1-4)GlcNAc(b1-2)Man(a1-3)[Gal(b1-3)GlcNAc(b1-3)Gal(b1-4)GlcNAc(b1-2)Man(a1-6)]Man(b1-4)GlcNAc(b1-4)GlcNAc
# Method in brief: as §1
# [14] = target: Gal(b1-3)GlcNAc(b1-3)Gal(b1-4)GlcNAc(b1-2)[Gal(b1-3)GlcNAc(b1-3)Gal(b1-4)GlcNAc(b1-6)]Man(a1-6)[Gal(b1-3)GlcNAc(b1-3)Gal(b1-4)GlcNAc(b1-2)Man(a1-3)]Man(b1-4)GlcNAc(b1-4)[Fuc(a1-6)]GlcNAc
# Method in brief: as §1
# [15] = target: Gal(b1-3)GlcNAc(b1-3)Gal(b1-4)GlcNAc(b1-3)Gal(b1-4)GlcNAc(b1-2)[Gal(b1-3)GlcNAc(b1-3)Gal(b1-4)GlcNAc(b1-3)Gal(b1-4)GlcNAc(b1-6)]Man(a1-6)[Gal(b1-3)GlcNAc(b1-3)Gal(b1-4)GlcNAc(b1-3)Gal(b1-4)GlcNAc(b1-2)Man(a1-3)]Man(b1-4)GlcNAc(b1-4)[Fuc(a1-6)]GlcNAc
# Method in brief: as §1
# [16] = target: Gal(b1-3)GlcNAc(b1-3)Gal(b1-4)GlcNAc(b1-6)[Gal(b1-3)GlcNAc(b1-3)]Gal(b1-4)Glc
# Method in brief: as §1
# [17] = target: Gal(b1-3)GlcNAc(b1-3)Gal(b1-4)[Fuc(a1-3)]GlcNAc
# Method in brief: as §1
# [18] = target: Gal(b1-3)GlcNAc(b1-3)Gal(b1-4)[Fuc(a1-3)]GlcNAc(b1-6)[Gal(b1-3)GlcNAc(b1-3)]Gal(b1-4)Glc
# Method in brief: as §1
# [19] = target: Gal(b1-3)GlcNAc(b1-3)GalNAc
# Method in brief: as §1
# [20] = target: Gal(b1-3)GlcNAc(b1-6)Gal(b1-4)GlcNAc
# Method in brief: as §1
# [21] = target: Gal(b1-3)GlcNAc(b1-6)GalNAc
# Method in brief: as §1
binder,measurement,setting,value
his-Lectin-24A (Drosophila melanogaster) (protein) MFRLSVLVLNLLLVSHEFSAGTAKIEIQPLPALCNGYCFPTLKPVMEYVAIHQDKWNTCTEILANEARKDQIQLNIQLDALKADVSNIKASQLSKDEKLDRMEREQFAMHESLETINRYLTVKLDRTKLQLEAIKNTMDYMKAQMDGYFSAINGVQCLQPGFEKIGDRYFYIEEDVELNWLDAQAKCRRMGGHLASIKTKQEFDAIVEKLDDSKSYFLGVNENTKTGDFVSAASGKSCLYHEWGPGEPHHNNDQERCVSILRKLMHVGNCTYEKRFICQYGI,glycan array binding signal (z-score),[1],0.442
same,glycan array binding signal (z-score),[2],1.01
same,glycan array binding signal (z-score),[3],-1.42
same,glycan array binding signal (z-score),Gal(b1-3)GlcNAc,-0.582
same,glycan array binding signal (z-score),[4],1.65
same,glycan array binding signal (z-score),[5],0.873
same,glycan array binding signal (z-score),Gal(b1-3)GlcNAc(b1-2)Man,0.383
same,glycan array binding signal (z-score),[6],1.74
same,glycan array binding signal (z-score),[7],0.19
same,glycan array binding signal (z-score),[8],-0.99
same,glycan array binding signal (z-score),[9],0.673
same,glycan array binding signal (z-score),[10],-0.423
same,glycan array binding signal (z-score),[11],-0.563
same,glycan array binding signal (z-score),[12],0.371
same,glycan array binding signal (z-score),[13],-0.845
same,glycan array binding signal (z-score),[14],1.32
same,glycan array binding signal (z-score),[15],1.49
same,glycan array binding signal (z-score),[16],-0.902
same,glycan array binding signal (z-score),[17],0.758
same,glycan array binding signal (z-score),[18],-1.27
same,glycan array binding signal (z-score),[19],-1.15
same,glycan array binding signal (z-score),[20],-1.08
same,glycan array binding signal (z-score),[21],0.548

# Shown with tabs: entries from further up.
binder	measurement	setting	value
his-Lectin-24A (Drosophila melanogaster) (protein) MFRLSVLVLNLLLVSHEFSAGTAKIEIQPLPALCNGYCFPTLKPVMEYVAIHQDKWNTCTEILANEARKDQIQLNIQLDALKADVSNIKASQLSKDEKLDRMEREQFAMHESLETINRYLTVKLDRTKLQLEAIKNTMDYMKAQMDGYFSAINGVQCLQPGFEKIGDRYFYIEEDVELNWLDAQAKCRRMGGHLASIKTKQEFDAIVEKLDDSKSYFLGVNENTKTGDFVSAASGKSCLYHEWGPGEPHHNNDQERCVSILRKLMHVGNCTYEKRFICQYGI	glycan array binding signal (z-score)	[7]	0.19
same	glycan array binding signal (z-score)	[8]	-0.99

# Reference: the supplement of paper PMC8728848
